In PMC8745027:
Results are given in words; binding and its absence hold for the method and conditions named. Binding seen in cells or lysates may run through a third protein. Some results given as binding are weak or reduced against the parent protein; the word gives no strength.

Sequences of proteins named here, by UniProt entry; tags and fusion partners are left off. A change or cut given only in a name is not applied to a line headed by its entry.
UniProt Q5T5P2: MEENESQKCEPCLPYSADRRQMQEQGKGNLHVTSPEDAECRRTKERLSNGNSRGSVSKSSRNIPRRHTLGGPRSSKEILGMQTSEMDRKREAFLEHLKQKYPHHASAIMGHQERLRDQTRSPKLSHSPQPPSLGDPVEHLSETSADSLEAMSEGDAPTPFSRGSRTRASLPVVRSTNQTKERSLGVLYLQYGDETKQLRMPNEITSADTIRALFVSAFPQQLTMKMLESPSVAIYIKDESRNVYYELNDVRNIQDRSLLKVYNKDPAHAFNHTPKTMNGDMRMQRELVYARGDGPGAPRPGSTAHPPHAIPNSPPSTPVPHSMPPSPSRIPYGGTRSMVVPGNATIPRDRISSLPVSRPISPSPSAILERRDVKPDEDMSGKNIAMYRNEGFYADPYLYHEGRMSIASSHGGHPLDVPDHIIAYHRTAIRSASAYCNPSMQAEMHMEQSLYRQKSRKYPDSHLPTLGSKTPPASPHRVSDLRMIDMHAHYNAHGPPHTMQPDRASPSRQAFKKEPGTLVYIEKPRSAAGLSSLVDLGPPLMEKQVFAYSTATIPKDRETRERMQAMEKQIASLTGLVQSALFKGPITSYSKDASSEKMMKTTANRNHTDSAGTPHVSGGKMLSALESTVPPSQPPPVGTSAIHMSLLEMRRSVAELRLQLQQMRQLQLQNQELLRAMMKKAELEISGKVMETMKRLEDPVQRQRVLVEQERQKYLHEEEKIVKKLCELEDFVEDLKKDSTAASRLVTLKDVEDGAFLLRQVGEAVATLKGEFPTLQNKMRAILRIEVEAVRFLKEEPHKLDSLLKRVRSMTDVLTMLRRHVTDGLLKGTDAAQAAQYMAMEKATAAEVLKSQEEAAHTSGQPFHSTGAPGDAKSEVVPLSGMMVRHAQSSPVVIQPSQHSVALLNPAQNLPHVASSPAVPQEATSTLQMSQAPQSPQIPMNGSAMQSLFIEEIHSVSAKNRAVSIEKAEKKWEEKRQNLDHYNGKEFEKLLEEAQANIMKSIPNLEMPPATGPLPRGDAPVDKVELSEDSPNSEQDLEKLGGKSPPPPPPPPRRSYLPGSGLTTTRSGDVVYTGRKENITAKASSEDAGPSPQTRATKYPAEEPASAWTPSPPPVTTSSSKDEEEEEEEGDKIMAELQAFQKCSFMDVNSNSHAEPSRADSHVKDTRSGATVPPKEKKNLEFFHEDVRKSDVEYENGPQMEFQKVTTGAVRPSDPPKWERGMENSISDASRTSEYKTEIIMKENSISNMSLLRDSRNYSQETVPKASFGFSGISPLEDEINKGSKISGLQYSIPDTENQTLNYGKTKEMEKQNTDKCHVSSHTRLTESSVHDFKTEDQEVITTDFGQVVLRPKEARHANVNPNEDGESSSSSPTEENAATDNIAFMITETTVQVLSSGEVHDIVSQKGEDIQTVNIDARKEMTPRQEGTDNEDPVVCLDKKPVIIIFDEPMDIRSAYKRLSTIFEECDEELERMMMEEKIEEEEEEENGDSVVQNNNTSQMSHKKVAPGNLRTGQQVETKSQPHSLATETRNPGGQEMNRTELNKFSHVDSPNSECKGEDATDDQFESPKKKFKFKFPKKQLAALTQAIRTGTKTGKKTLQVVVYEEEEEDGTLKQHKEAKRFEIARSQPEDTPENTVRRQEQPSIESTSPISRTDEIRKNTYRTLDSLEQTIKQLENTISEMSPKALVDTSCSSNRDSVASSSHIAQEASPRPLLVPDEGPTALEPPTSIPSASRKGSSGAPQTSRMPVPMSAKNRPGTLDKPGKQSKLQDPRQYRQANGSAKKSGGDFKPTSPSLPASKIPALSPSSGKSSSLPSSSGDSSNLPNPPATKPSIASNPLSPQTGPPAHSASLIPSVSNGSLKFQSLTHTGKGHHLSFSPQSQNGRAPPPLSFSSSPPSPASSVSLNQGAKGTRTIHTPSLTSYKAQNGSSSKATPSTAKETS
UniProt P40763: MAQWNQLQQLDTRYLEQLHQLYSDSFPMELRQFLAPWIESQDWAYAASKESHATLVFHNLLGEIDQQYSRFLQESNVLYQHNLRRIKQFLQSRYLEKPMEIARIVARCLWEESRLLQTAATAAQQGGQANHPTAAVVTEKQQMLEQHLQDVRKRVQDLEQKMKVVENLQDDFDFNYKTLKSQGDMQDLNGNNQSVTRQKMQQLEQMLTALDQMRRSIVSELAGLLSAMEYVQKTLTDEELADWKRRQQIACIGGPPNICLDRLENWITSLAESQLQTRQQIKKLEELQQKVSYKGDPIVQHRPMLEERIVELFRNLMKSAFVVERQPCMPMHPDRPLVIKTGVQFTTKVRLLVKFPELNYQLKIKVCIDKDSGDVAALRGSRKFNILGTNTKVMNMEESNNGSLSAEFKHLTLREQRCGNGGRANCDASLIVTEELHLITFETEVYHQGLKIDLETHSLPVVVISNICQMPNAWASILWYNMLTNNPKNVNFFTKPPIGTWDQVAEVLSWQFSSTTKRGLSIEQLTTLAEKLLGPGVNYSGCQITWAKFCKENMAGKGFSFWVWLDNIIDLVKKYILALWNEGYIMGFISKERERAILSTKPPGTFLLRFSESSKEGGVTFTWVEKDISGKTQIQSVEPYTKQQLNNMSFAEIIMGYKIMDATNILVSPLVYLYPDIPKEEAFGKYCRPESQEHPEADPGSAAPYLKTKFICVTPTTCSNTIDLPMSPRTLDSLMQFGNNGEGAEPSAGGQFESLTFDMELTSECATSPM
UniProt P23458: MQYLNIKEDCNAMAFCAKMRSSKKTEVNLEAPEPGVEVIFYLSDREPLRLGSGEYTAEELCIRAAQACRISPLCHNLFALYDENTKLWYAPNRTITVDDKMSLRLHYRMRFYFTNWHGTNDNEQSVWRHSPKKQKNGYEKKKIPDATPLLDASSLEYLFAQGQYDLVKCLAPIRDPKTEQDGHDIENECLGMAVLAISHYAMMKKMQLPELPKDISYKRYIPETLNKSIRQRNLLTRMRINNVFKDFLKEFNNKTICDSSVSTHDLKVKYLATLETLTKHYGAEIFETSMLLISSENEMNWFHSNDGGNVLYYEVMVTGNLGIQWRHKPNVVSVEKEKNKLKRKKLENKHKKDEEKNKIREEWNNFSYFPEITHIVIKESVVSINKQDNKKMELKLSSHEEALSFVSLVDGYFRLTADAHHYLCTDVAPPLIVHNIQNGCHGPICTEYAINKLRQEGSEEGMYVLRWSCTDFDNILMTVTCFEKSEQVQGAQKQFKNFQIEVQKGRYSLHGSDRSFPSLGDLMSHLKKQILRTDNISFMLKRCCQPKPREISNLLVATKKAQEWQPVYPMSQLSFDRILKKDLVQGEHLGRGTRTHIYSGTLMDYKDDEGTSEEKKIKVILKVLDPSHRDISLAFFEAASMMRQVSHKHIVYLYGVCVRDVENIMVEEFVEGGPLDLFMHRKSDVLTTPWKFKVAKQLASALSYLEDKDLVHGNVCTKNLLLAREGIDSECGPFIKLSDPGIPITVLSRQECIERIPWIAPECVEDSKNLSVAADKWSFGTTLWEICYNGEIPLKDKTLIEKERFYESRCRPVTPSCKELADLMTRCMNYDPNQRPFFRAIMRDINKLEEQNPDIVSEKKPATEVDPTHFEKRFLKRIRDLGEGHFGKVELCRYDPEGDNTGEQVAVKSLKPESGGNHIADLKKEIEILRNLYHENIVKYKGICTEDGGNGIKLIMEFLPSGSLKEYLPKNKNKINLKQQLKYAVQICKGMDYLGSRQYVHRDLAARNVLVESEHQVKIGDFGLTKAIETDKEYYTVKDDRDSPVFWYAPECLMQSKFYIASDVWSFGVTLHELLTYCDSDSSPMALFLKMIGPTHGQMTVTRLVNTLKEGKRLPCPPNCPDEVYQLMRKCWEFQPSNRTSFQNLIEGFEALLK
UniProt O60674: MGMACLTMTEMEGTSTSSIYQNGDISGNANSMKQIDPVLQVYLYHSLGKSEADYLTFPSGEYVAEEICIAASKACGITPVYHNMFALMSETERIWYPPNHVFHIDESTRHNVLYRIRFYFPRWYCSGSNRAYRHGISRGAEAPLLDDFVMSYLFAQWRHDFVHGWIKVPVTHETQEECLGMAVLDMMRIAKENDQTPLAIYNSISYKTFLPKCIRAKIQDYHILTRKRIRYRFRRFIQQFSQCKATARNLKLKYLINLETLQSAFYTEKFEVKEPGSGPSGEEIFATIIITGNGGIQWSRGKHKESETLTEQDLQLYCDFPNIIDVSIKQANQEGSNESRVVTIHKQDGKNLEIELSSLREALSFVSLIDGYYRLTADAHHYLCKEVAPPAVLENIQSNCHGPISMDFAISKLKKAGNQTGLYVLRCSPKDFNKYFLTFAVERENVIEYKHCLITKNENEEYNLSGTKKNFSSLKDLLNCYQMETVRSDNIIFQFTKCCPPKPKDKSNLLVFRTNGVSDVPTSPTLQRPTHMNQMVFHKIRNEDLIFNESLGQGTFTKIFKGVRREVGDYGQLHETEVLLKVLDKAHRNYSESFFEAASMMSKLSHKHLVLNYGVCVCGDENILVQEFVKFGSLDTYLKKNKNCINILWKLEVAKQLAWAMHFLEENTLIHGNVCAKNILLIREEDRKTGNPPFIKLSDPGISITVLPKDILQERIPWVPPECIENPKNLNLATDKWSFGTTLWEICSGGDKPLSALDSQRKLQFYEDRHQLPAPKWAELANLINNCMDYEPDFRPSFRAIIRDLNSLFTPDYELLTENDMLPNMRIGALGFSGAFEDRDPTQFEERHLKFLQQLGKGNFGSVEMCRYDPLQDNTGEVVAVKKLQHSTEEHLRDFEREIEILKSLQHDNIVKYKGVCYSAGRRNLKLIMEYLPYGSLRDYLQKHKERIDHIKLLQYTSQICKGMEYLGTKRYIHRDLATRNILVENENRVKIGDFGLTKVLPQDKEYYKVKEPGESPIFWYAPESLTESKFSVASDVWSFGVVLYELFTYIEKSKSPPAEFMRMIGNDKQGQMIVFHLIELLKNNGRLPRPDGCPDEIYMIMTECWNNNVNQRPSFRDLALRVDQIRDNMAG

Legend:
[1] = target: KIAA1217 (overexpressed, pcDNA3.1-DYK-KIAA1217) (human) (UniProt Q5T5P2); test: co-IP; reciprocal co-IP from HEK-293T cells ectopically expressing KIAA1217 and STAT3; Protein A/G magnetic beads with antibody at 5 ug/mL, lysate in IP lysis solution, 4 °C overnight; Western blot; isotype-matched IgG as negative control
[2] = target: endogenous KIAA1217 (human (endogenous in HepG2)) (UniProt Q5T5P2); test: co-IP; co-IP of endogenous proteins from HepG2 cells; Protein A/G magnetic beads with antibody at 5 ug/mL, lysate in IP lysis solution, 4 °C overnight; Western blot; isotype-matched IgG as negative control
[3] = target: STAT3 (overexpressed, pCMV-DYK-STAT3) (UniProt P40763); test: co-IP; reciprocal co-IP from HEK-293T cells ectopically expressing KIAA1217 and STAT3; Protein A/G magnetic beads with antibody at 5 ug/mL, lysate in IP lysis solution, 4 °C overnight; Western blot; isotype-matched IgG as negative control
[4] = target: endogenous JAK1 (human (endogenous in HepG2)) (UniProt P23458); test: co-IP; co-IP of endogenous proteins from HepG2 cells; Protein A/G magnetic beads with antibody at 5 ug/mL, lysate in IP lysis solution, 4 °C overnight; Western blot; isotype-matched IgG as negative control
[5] = target: endogenous JAK2 (human (endogenous in HepG2)) (UniProt O60674); test: as above
[6] = target: endogenous STAT3 (human (endogenous in HepG2)) (UniProt P40763); test: as above

With “STAT3 (overexpressed, pCMV-DYK-STAT3) (from UniProt P40763 1-770)” the binding [1] was “binds”.

With “endogenous phosphorylated STAT3 (p-STAT3) (from UniProt P40763 1-770)” the binding [2] was “binds”.

For “KIAA1217 (overexpressed, pcDNA3.1-DYK-KIAA1217) (from UniProt Q5T5P2-1 1-1943)”, the binding [3] was “binds”.

“endogenous STAT3 (from UniProt P40763 1-770)” was tested, and the binding [2] was “binds”.

For “endogenous KIAA1217 (from UniProt Q5T5P2 1-1943)”, the binding [4] was “binds”, the binding [5] was “binds” and the binding [6] was “binds”.
